{"source": "PubChem BioAssay AID1224830 (NIAID, 2016)", "assay": "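Host factors that control LPS-induced TNF expression in human macrophages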 (primary screen)", "system": "human THP-1 monocytic leukaemia cells, TNF dual-luciferase reporter clone, PMA-differentiated to macrophage-like cells", "knock-down reagent": "siRNA pool against human genes, 50 nM", "time to read-out": "LPS for 4 h, given about 3 days after siRNA transfection", "treatment": "bacterial LPS (TLR4 ligand), 10 ng/ml", "read-out": "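Ratio of firefly to renilla light, scaled to the plate median and expressed as a robust z-score per replicate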", "reading the numbers": "TNF reporter robust z-score: higher = stronger TNF reporter response to LPS", "rule for the call": "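Each well counts as active if its z-score is over 2.8 or under -1.5; controls are left without a call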", "note": "In all, the deposit lists about 18,000 reagents; below is an unselected part. About 2,900 of them (16%) count as active. 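Calls are made per well; low scores hint the gene aids the LPS response, high scores that it dampens it.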 Repeated entries: four replicate wells of each siRNA pool."}
The first 4 records, to show the layout:
{"gene knocked down": "ITPKA", "TNF reporter robust z-score": -0.18, "Outcome": "inactive"}
{"gene knocked down": "ITPKA", "TNF reporter robust z-score": -0.49, "Outcome": "inactive"}
{"gene knocked down": "ITPKA", "TNF reporter robust z-score": 0.01, "Outcome": "inactive"}
{"gene knocked down": "ITPKA", "TNF reporter robust z-score": -0.24, "Outcome": "inactive"}

Main list, repeating the preview:
{"gene knocked down": "ITPKA", "TNF reporter robust z-score": -0.18, "Outcome": "inactive"}
{"gene knocked down": "ITPKA", "TNF reporter robust z-score": -0.49, "Outcome": "inactive"}
{"gene knocked down": "ITPKA", "TNF reporter robust z-score": 0.01, "Outcome": "inactive"}
{"gene knocked down": "ITPKA", "TNF reporter robust z-score": -0.24, "Outcome": "inactive"}
{"gene knocked down": "CAVIN2", "TNF reporter robust z-score": 0.63, "Outcome": "inactive"}
{"gene knocked down": "CAVIN2", "TNF reporter robust z-score": 0.16, "Outcome": "inactive"}
{"gene knocked down": "CAVIN2", "TNF reporter robust z-score": 0.94, "Outcome": "inactive"}
{"gene knocked down": "CAVIN2", "TNF reporter robust z-score": 1.58, "Outcome": "inactive"}
{"gene knocked down": "TMEM138", "TNF reporter robust z-score": 1.13, "Outcome": "inactive"}
{"gene knocked down": "TMEM138", "TNF reporter robust z-score": 1.48, "Outcome": "inactive"}
{"gene knocked down": "TMEM138", "TNF reporter robust z-score": 0.58, "Outcome": "inactive"}
{"gene knocked down": "TMEM138", "TNF reporter robust z-score": 1.73, "Outcome": "inactive"}
{"gene knocked down": "H2AC25", "TNF reporter robust z-score": 1.67, "Outcome": "inactive"}
{"gene knocked down": "H2AC25", "TNF reporter robust z-score": 2.14, "Outcome": "inactive"}
{"gene knocked down": "H2AC25", "TNF reporter robust z-score": 1.74, "Outcome": "inactive"}
{"gene knocked down": "H2AC25", "TNF reporter robust z-score": 4.14, "Outcome": "active"}
{"gene knocked down": "P4HB", "TNF reporter robust z-score": -1.16, "Outcome": "inactive"}
{"gene knocked down": "P4HB", "TNF reporter robust z-score": -0.66, "Outcome": "inactive"}
{"gene knocked down": "P4HB", "TNF reporter robust z-score": -1.41, "Outcome": "inactive"}
{"gene knocked down": "P4HB", "TNF reporter robust z-score": -0.72, "Outcome": "inactive"}
{"gene knocked down": "KIFC2", "TNF reporter robust z-score": 0.34, "Outcome": "inactive"}
{"gene knocked down": "KIFC2", "TNF reporter robust z-score": 0.61, "Outcome": "inactive"}
{"gene knocked down": "KIFC2", "TNF reporter robust z-score": 0.73, "Outcome": "inactive"}
{"gene knocked down": "KIFC2", "TNF reporter robust z-score": 3.13, "Outcome": "active"}
{"gene knocked down": "PTP4A3", "TNF reporter robust z-score": -0.58, "Outcome": "inactive"}
{"gene knocked down": "PTP4A3", "TNF reporter robust z-score": -1.18, "Outcome": "inactive"}
{"gene knocked down": "PTP4A3", "TNF reporter robust z-score": -0.6, "Outcome": "inactive"}
{"gene knocked down": "PTP4A3", "TNF reporter robust z-score": 1.09, "Outcome": "inactive"}
{"gene knocked down": "SNAPC3", "TNF reporter robust z-score": -1.26, "Outcome": "inactive"}
{"gene knocked down": "SNAPC3", "TNF reporter robust z-score": -0.87, "Outcome": "inactive"}
{"gene knocked down": "SNAPC3", "TNF reporter robust z-score": -0.78, "Outcome": "inactive"}
{"gene knocked down": "SNAPC3", "TNF reporter robust z-score": -0.82, "Outcome": "inactive"}
